Data published in article PMC7693736.
These are yes or no findings as the source states them, for the method shown. In cells and extracts the contact can be indirect. Here binding means that the protein was enriched with, or labelled near, the bait; the list need not be complete.

Molecular target: Flag-Beclin 1-HA, Q14457
Experiment: affinity purification with mass spectrometry; Flag-Beclin 1-HA from 293 cells treated with PBS or empagliflozin (200 nM, 18 h); lysis in 25 mM Tris pH 7.4, 150 mM NaCl, 1% NP-40, 1 mM EDTA, 5% glycerol; sequential anti-Flag M2 agarose and anti-HA agarose with peptide elution; bands from a SYPRO Ruby stained gel analysed by mass spectrometry
Conditions: remark: other sources report otherwise

B1: Autophagy and Beclin 1 Regulator 1 (AMBRA1), endogenous in 293 cells, Q9C0C7 1-1298 (protein)
chain: MKVVPEKNAVRILWGRERGARAMGAQRLLQELVEDKTRWMKWEGKRVELPDSPRSTFLLAFSPDRTLLASTHVNHNIYITEVKTGKCVHSLIGHRRTPWCVTFHPTISGLIASGCLDGEVRIWDLHGGSESWFTDSNNAIASLAFHPTAQLLLIATANEIHFWDWSRREPFAVVKTASEMERVRLVRFDPLGHYLLTAIVNPSNQQGDDEPEIPIDGTELSHYRQRALLQSQPVRRTPLLHNFLHMLSSRSSGIQVGEQSTVQDSATPSPPPPPPQPSTERPRTSAYIRLRQRVSYPTAECCQHLGILCLCSRCSGTRVPSLLPHQDSVPPASARATTPSFSFVQTEPFHPPEQASSTQQDQGLLNRPSAFSTVQSSTAGNTLRNLSLGPTRRSLGGPLSSHPSRYHREIAPGLTGSEWTRTVLSLNSRSEAESMPPPRTSASSVSLLSVLRQQEGGSQASVYTSATEGRGFPASGLATESDGGNGSSQNNSGSIRHELQCDLRRFFLEYDRLQELDQSLSGEAPQTQQAQEMLNNNIESERPGPSHQPTPHSSENNSNLSRGHLNRCRACHNLLTFNNDTLRWERTTPNYSSGEASSSWQVPSSFESVPSSGSQLPPLERTEGQTPSSSRLELSSSASPQEERTVGVAFNQETGHWERIYTQSSRSGTVSQEALHQDMPEESSEEDSLRRRLLESSLISLSRYDGAGSREHPIYPDPARLSPAAYYAQRMIQYLSRRDSIRQRSMRYQQNRLRSSTSSSSSDNQGPSVEGTDLEFEDFEDNGDRSRHRAPRNARMSAPSLGRFVPRRFLLPEYLPYAGIFHERGQPGLATHSSVNRVLAGAVIGDGQSAVASNIANTTYRLQWWDFTKFDLPEISNASVNVLVQNCKIYNDASCDISADGQLLAAFIPSSQRGFPDEGILAVYSLAPHNLGEMLYTKRFGPNAISVSLSPMGRYVMVGLASRRILLHPSTEHMVAQVFRLQQAHGGETSMRRVFNVLYPMPADQRRHVSINSARWLPEPGLGLAYGTNKGDLVICRPEALNSGVEYYWDQLNETVFTVHSNSRSSERPGTSRATWRTDRDMGLMNAIGLQPRNPATSVTSQGTQTLALQLQNAETQTEREVPEPGTAASGPGEGEGSEYGASGEDALSRIQRLMAEGGMTAVVQREQSTTMASMGGFGNNIIVSHRIHRSSQTGTEPGAAHTSSPQPSTSRGLLPEAGQLAERGLSPRTASWDQPGTPGREPTQPTLPSSSPVPIPVSLPSAEGPTLHCELTNNNHLLDGGSSRGDAAGPRGEPRNR
In the case of B1, the binding is reported as “binds”.
